Measured data: PubChem BioAssay AID504764 (Drosophila RNAi Screening Center, 2011)

Assay: 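Knock-downs that raise or lower a Notch target reporter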 (primary screen)
System: Drosophila Kc167 cells
Reagents: long dsRNA against Drosophila genes
Time to read-out: about 5 days (4 days dsRNA, then 24 h after transfection)
Treatment: transfection of constitutively active membrane-tethered Notch lacking the extracellular domain, read 24 h later
Measured: 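Light from a Notch-responsive E(spl)m3 luciferase reporter under active Notch, with control-promoter and no-Notch reporter wells to normalise; raw counts from paired wells a and b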
Direction: induced reporter light, run 1, well a and induced reporter light, run 1, well b: higher = more light from the Notch target reporter with active Notch; control promoter light, run 1, well a and control promoter light, run 1, well b: higher = more light from the viral control promoter (cell number, transfection, viability); uninduced reporter light, run 1, well a: higher = more light from the Notch target reporter without active Notch
Active means: 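Wells with low control signal or poorly matching duplicates excluded; duplicates averaged; per source plate, z beyond ±2 for induced/control log2 ratio or beyond ±1.8 for induced/uninduced marks a hit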
Meaning of the calls: active = modifier hit (raised or lowered Notch signal); inactive = not a hit
In all, the deposit lists about 22,000 reagents; below is a random part of those with a known target gene and a result. Over the whole deposit, 403 (1.9%) got an active call. 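Unnormalised raw counts per well; ratio z-scores behind the hit calls and whether each hit raises or lowers signal are not deposited.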 Not stated in the record: the amount of reagent.

After knock-down of Mipp2 (GeneID 31544) [DRSC18682], the record shows induced reporter light, run 1, well a = 1.85e5; induced reporter light, run 1, well b = 2.02e5; control promoter light, run 1, well a = 2.38e5; control promoter light, run 1, well b = 2.48e5; uninduced reporter light, run 1, well a = 15285; inactive. Wee1 (GeneID 33965) [DRSC03635] gave induced reporter light, run 1, well a = 1.53e5; induced reporter light, run 1, well b = 1.52e5; control promoter light, run 1, well a = 1.76e5; control promoter light, run 1, well b = 2.21e5; uninduced reporter light, run 1, well a = 10405; inactive. CG30431 (GeneID 35549) [DRSC04902] showed induced reporter light, run 1, well a = 1.98e5; induced reporter light, run 1, well b = 2.03e5; control promoter light, run 1, well a = 1.68e5; control promoter light, run 1, well b = 1.73e5; uninduced reporter light, run 1, well a = 13610; inactive. Against CG30431 (GeneID 35549) [DRSC04904], the values are induced reporter light, run 1, well a = 1.50e5; induced reporter light, run 1, well b = 1.48e5; control promoter light, run 1, well a = 1.57e5; control promoter light, run 1, well b = 1.45e5; uninduced reporter light, run 1, well a = 9700; inactive. CG11999 (GeneID 40637) [DRSC12185] showed induced reporter light, run 1, well a = 88685; induced reporter light, run 1, well b = 1.21e5; control promoter light, run 1, well a = 1.18e5; control promoter light, run 1, well b = 79685; uninduced reporter light, run 1, well a = 5905; inactive. Against Drsl6 (GeneID 38416) [DRSC08161] the deposit lists induced reporter light, run 1, well a = 1.04e5; induced reporter light, run 1, well b = 1.13e5; control promoter light, run 1, well a = 2.47e5; control promoter light, run 1, well b = 1.64e5; uninduced reporter light, run 1, well a = 4575; inactive.

Against CG31368 (GeneID 41437) [DRSC14949], the values are induced reporter light, run 1, well a = 57140; induced reporter light, run 1, well b = 66010; control promoter light, run 1, well a = 71275; control promoter light, run 1, well b = 58170; uninduced reporter light, run 1, well a = 5635; inactive. Silencing of CG31368 (GeneID 41437) [DRSC14951] gave: induced reporter light, run 1, well a = 1.28e5; induced reporter light, run 1, well b = 1.55e5; control promoter light, run 1, well a = 1.01e5; control promoter light, run 1, well b = 1.06e5; uninduced reporter light, run 1, well a = 9395; inactive.

Records above whose target name starts with C or c (5):
CG30431 (GeneID 35549) [DRSC04902] — induced reporter light, run 1, well a: 1.98e5; induced reporter light, run 1, well b: 2.03e5; control promoter light, run 1, well a: 1.68e5; control promoter light, run 1, well b: 1.73e5; uninduced reporter light, run 1, well a: 13610; Call: inactive
CG30431 (GeneID 35549) [DRSC04904] — induced reporter light, run 1, well a: 1.50e5; induced reporter light, run 1, well b: 1.48e5; control promoter light, run 1, well a: 1.57e5; control promoter light, run 1, well b: 1.45e5; uninduced reporter light, run 1, well a: 9700; Call: inactive
CG11999 (GeneID 40637) [DRSC12185] — induced reporter light, run 1, well a: 88685; induced reporter light, run 1, well b: 1.21e5; control promoter light, run 1, well a: 1.18e5; control promoter light, run 1, well b: 79685; uninduced reporter light, run 1, well a: 5905; Call: inactive
CG31368 (GeneID 41437) [DRSC14949] — induced reporter light, run 1, well a: 57140; induced reporter light, run 1, well b: 66010; control promoter light, run 1, well a: 71275; control promoter light, run 1, well b: 58170; uninduced reporter light, run 1, well a: 5635; Call: inactive
CG31368 (GeneID 41437) [DRSC14951] — induced reporter light, run 1, well a: 1.28e5; induced reporter light, run 1, well b: 1.55e5; control promoter light, run 1, well a: 1.01e5; control promoter light, run 1, well b: 1.06e5; uninduced reporter light, run 1, well a: 9395; Call: inactive

Next reagents:
With knock-down of Sema2b (GeneID 246538) [DRSC05609] the results were induced reporter light, run 1, well a = 1.22e5; induced reporter light, run 1, well b = 1.23e5; control promoter light, run 1, well a = 1.71e5; control promoter light, run 1, well b = 1.45e5; uninduced reporter light, run 1, well a = 8835; inactive. With knock-down of Sema2b (GeneID 246538) [DRSC05611], the record shows induced reporter light, run 1, well a = 1.07e5; induced reporter light, run 1, well b = 1.18e5; control promoter light, run 1, well a = 1.44e5; control promoter light, run 1, well b = 1.12e5; uninduced reporter light, run 1, well a = 8338; inactive. Sema2b (GeneID 246538) [DRSC06867] gave induced reporter light, run 1, well a = 44610; induced reporter light, run 1, well b = 49230; control promoter light, run 1, well a = 89700; control promoter light, run 1, well b = 75430; uninduced reporter light, run 1, well a = 4485; inactive. Tis11 (GeneID 32222) [DRSC20293] showed induced reporter light, run 1, well a = 63675; induced reporter light, run 1, well b = 43145; control promoter light, run 1, well a = 62330; control promoter light, run 1, well b = 57255; uninduced reporter light, run 1, well a = 10260; inactive. Depletion of emei (GeneID 39250) [DRSC10897] resulted in: induced reporter light, run 1, well a = 1.37e5; induced reporter light, run 1, well b = 1.56e5; control promoter light, run 1, well a = 2.05e5; control promoter light, run 1, well b = 1.99e5; uninduced reporter light, run 1, well a = 8030; inactive. Against CG14712 (GeneID 41397) [DRSC14935], the entry reads induced reporter light, run 1, well a = 27330; induced reporter light, run 1, well b = 34335; control promoter light, run 1, well a = 31720; control promoter light, run 1, well b = 30490; uninduced reporter light, run 1, well a = 4178; inactive.

su(r) (GeneID 31858) [DRSC18705] scored induced reporter light, run 1, well a = 1.85e5; induced reporter light, run 1, well b = 1.55e5; control promoter light, run 1, well a = 2.63e5; control promoter light, run 1, well b = 2.25e5; uninduced reporter light, run 1, well a = 11755; inactive. Dredd (GeneID 31011) [DRSC18461] showed induced reporter light, run 1, well a = 43025; induced reporter light, run 1, well b = 47530; control promoter light, run 1, well a = 47545; control promoter light, run 1, well b = 59000; uninduced reporter light, run 1, well a = 3035; inactive. Silencing of sei (GeneID 37843) [DRSC04713] gave: induced reporter light, run 1, well a = 1.76e5; induced reporter light, run 1, well b = 1.90e5; control promoter light, run 1, well a = 1.63e5; control promoter light, run 1, well b = 1.82e5; uninduced reporter light, run 1, well a = 14970; inactive. Depletion of CG17264 (GeneID 33511) [DRSC00500] came out at: induced reporter light, run 1, well a = 1.16e5; induced reporter light, run 1, well b = 1.21e5; control promoter light, run 1, well a = 78105; control promoter light, run 1, well b = 1.03e5; uninduced reporter light, run 1, well a = 10445; inactive.
